{"source": "PubChem BioAssay AID504804 (Drosophila RNAi Screening Center, 2011)", "assay": "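Fly genes whose loss lessens doxorubicin-driven cell death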 (primary screen)", "cell system": "Drosophila Kc cells", "reagent": "long dsRNA against Drosophila genes, 0.5 µg dsRNA per well", "timing": "96 h (48 h knock-down, then 48 h drug)", "treatment": "doxorubicin 5 µg/ml for 48 h, added 48 h after dsRNA", "detection": "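Viability measured as cellular ATP by luminescence after 48 h knock-down then 48 h doxorubicin at 5 µg/ml; unnormalised plate counts for each replicate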", "scale": "raw ATP luminescence: higher = more viable cells, protection from doxorubicin", "rule for the call": "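Active when both duplicate wells lie at least 2 SD above the plate mean and protection is confirmed by rescreening and independent dsRNAs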", "note": "The deposit covers about 19,000 reagents; this is a random part of those with a known target gene and a result. Of all reagents, 47 (0.25%) were called active. 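Signals are raw, not normalised; exact z-scores behind calls not deposited; actives needed confirmation, so some wells reaching 2 SD are inactive.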 A plus sign joins genes that one reagent is predicted to hit. No sequences are given here."}
{"gene":"Cyp9b1 (GeneID 35634)","dsRNA":"DRSC07389","raw ATP luminescence, replicate 1":59300,"raw ATP luminescence, replicate 2":76263,"outcome":"inactive"}
{"gene":"CG4666 (GeneID 31541)","dsRNA":"DRSC18379","raw ATP luminescence, replicate 1":57980,"raw ATP luminescence, replicate 2":46760,"outcome":"inactive"}
{"gene":"btl (GeneID 39564)","dsRNA":"DRSC11331","raw ATP luminescence, replicate 1":62260,"raw ATP luminescence, replicate 2":59333,"outcome":"inactive"}
{"gene":"Svil (GeneID 38306)","dsRNA":"DRSC07981","raw ATP luminescence, replicate 1":1.95e5,"raw ATP luminescence, replicate 2":1.63e5,"outcome":"inactive"}
{"gene":"Svil (GeneID 38306)","dsRNA":"DRSC08296","raw ATP luminescence, replicate 1":67203,"raw ATP luminescence, replicate 2":63500,"outcome":"inactive"}
{"gene":"Not1 (GeneID 5740252)","dsRNA":"DRSC06787","raw ATP luminescence, replicate 1":30783,"raw ATP luminescence, replicate 2":58017,"outcome":"inactive"}
{"gene":"Not1 (GeneID 5740252)","dsRNA":"DRSC06794","raw ATP luminescence, replicate 1":62813,"raw ATP luminescence, replicate 2":73710,"outcome":"inactive"}
{"gene":"CG9593 (GeneID 41912)","dsRNA":"DRSC16508","raw ATP luminescence, replicate 1":75990,"raw ATP luminescence, replicate 2":62700,"outcome":"inactive"}
{"gene":"Proc (GeneID 250710)","dsRNA":"DRSC03009","raw ATP luminescence, replicate 1":10517,"raw ATP luminescence, replicate 2":13770,"outcome":"inactive"}
{"gene":"Sys1 (GeneID 41023)","dsRNA":"DRSC14372","raw ATP luminescence, replicate 1":64293,"raw ATP luminescence, replicate 2":70657,"outcome":"inactive"}
{"gene":"Cdc45 (GeneID 31052)","dsRNA":"DRSC18164","raw ATP luminescence, replicate 1":59830,"raw ATP luminescence, replicate 2":25180,"outcome":"inactive"}
{"gene":"CG32086 (GeneID 326195)","dsRNA":"DRSC10586","raw ATP luminescence, replicate 1":60457,"raw ATP luminescence, replicate 2":55813,"outcome":"inactive"}
{"gene":"Csp (GeneID 40459)","dsRNA":"DRSC11860","raw ATP luminescence, replicate 1":19270,"raw ATP luminescence, replicate 2":23190,"outcome":"inactive"}
{"gene":"CG42382 (GeneID 35938)","dsRNA":"DRSC07671","raw ATP luminescence, replicate 1":52673,"raw ATP luminescence, replicate 2":65510,"outcome":"inactive"}
{"gene":"Sox21b (GeneID 39569)","dsRNA":"DRSC10025","raw ATP luminescence, replicate 1":25573,"raw ATP luminescence, replicate 2":21833,"outcome":"inactive"}
{"gene":"Sox21b (GeneID 39569)","dsRNA":"DRSC10634","raw ATP luminescence, replicate 1":26020,"raw ATP luminescence, replicate 2":28137,"outcome":"inactive"}
{"gene":"Fdh (GeneID 41311)","dsRNA":"DRSC16670","raw ATP luminescence, replicate 1":44407,"raw ATP luminescence, replicate 2":21477,"outcome":"inactive"}
{"gene":"SdhBL (GeneID 32887)","dsRNA":"DRSC20039","raw ATP luminescence, replicate 1":3.47e5,"raw ATP luminescence, replicate 2":3.35e5,"outcome":"inactive"}
{"gene":"mRpS21 (GeneID 318249)","dsRNA":"DRSC12965","raw ATP luminescence, replicate 1":1.79e5,"raw ATP luminescence, replicate 2":2.18e5,"outcome":"inactive"}
{"gene":"Mco3 (GeneID 43134)","dsRNA":"DRSC15926","raw ATP luminescence, replicate 1":63300,"raw ATP luminescence, replicate 2":56150,"outcome":"inactive"}
{"gene":"me31B (GeneID 34364)","dsRNA":"DRSC03569","raw ATP luminescence, replicate 1":78373,"raw ATP luminescence, replicate 2":60190,"outcome":"inactive"}
{"gene":"cindr (GeneID 43654)","dsRNA":"DRSC14298","raw ATP luminescence, replicate 1":44310,"raw ATP luminescence, replicate 2":31920,"outcome":"inactive"}
{"gene":"CG7886 (GeneID 41775)","dsRNA":"DRSC16333","raw ATP luminescence, replicate 1":68670,"raw ATP luminescence, replicate 2":67040,"outcome":"inactive"}
{"gene":"CG33514 (GeneID 3346239)","dsRNA":"DRSC08471","raw ATP luminescence, replicate 1":63093,"raw ATP luminescence, replicate 2":84573,"outcome":"inactive"}
{"gene":"CG33514 (GeneID 3346239)","dsRNA":"DRSC08472","raw ATP luminescence, replicate 1":63150,"raw ATP luminescence, replicate 2":85447,"outcome":"inactive"}
{"gene":"CG8229 + CG33199","dsRNA":"DRSC05134","raw ATP luminescence, replicate 1":82873,"raw ATP luminescence, replicate 2":86537,"outcome":"inactive"}
{"gene":"CG12746 (GeneID 40672)","dsRNA":"DRSC12218","raw ATP luminescence, replicate 1":54353,"raw ATP luminescence, replicate 2":27057,"outcome":"inactive"}
{"gene":"CG1441 (GeneID 36029)","dsRNA":"DRSC06448","raw ATP luminescence, replicate 1":80660,"raw ATP luminescence, replicate 2":52470,"outcome":"inactive"}
{"gene":"Nplp2 (GeneID 50286)","dsRNA":"DRSC09824","raw ATP luminescence, replicate 1":1.00e5,"raw ATP luminescence, replicate 2":67190,"outcome":"inactive"}
{"gene":"Cortactin (GeneID 42491)","dsRNA":"DRSC16612","raw ATP luminescence, replicate 1":42540,"raw ATP luminescence, replicate 2":45140,"outcome":"inactive"}
{"gene":"sna (GeneID 34908)","dsRNA":"DRSC03613","raw ATP luminescence, replicate 1":70397,"raw ATP luminescence, replicate 2":73673,"outcome":"inactive"}
{"gene":"CG17026 (GeneID 39739)","dsRNA":"DRSC10237","raw ATP luminescence, replicate 1":86600,"raw ATP luminescence, replicate 2":73557,"outcome":"inactive"}
{"gene":"CG4853 (GeneID 36974)","dsRNA":"DRSC06898","raw ATP luminescence, replicate 1":69307,"raw ATP luminescence, replicate 2":69533,"outcome":"inactive"}
{"gene":"Ctu2 (GeneID 35234)","dsRNA":"DRSC02024","raw ATP luminescence, replicate 1":77210,"raw ATP luminescence, replicate 2":59563,"outcome":"inactive"}
{"gene":"CG42404 (GeneID 41842)","dsRNA":"DRSC15558","raw ATP luminescence, replicate 1":59750,"raw ATP luminescence, replicate 2":64450,"outcome":"inactive"}
{"gene":"uex (GeneID 5740320)","dsRNA":"DRSC20784","raw ATP luminescence, replicate 1":2.12e5,"raw ATP luminescence, replicate 2":2.37e5,"outcome":"inactive"}
{"gene":"uex (GeneID 5740320)","dsRNA":"DRSC20786","raw ATP luminescence, replicate 1":2.48e5,"raw ATP luminescence, replicate 2":2.40e5,"outcome":"inactive"}
